Source: article PMC8617289
No constants are given. Whether binding was seen depends on the method and setting. In cells and extracts the contact can be indirect. Some binding calls cover weakened binding; strength is not graded here.

The chains behind the UniProt entries cited, without tags or fusion partners.
UniProt A2A935: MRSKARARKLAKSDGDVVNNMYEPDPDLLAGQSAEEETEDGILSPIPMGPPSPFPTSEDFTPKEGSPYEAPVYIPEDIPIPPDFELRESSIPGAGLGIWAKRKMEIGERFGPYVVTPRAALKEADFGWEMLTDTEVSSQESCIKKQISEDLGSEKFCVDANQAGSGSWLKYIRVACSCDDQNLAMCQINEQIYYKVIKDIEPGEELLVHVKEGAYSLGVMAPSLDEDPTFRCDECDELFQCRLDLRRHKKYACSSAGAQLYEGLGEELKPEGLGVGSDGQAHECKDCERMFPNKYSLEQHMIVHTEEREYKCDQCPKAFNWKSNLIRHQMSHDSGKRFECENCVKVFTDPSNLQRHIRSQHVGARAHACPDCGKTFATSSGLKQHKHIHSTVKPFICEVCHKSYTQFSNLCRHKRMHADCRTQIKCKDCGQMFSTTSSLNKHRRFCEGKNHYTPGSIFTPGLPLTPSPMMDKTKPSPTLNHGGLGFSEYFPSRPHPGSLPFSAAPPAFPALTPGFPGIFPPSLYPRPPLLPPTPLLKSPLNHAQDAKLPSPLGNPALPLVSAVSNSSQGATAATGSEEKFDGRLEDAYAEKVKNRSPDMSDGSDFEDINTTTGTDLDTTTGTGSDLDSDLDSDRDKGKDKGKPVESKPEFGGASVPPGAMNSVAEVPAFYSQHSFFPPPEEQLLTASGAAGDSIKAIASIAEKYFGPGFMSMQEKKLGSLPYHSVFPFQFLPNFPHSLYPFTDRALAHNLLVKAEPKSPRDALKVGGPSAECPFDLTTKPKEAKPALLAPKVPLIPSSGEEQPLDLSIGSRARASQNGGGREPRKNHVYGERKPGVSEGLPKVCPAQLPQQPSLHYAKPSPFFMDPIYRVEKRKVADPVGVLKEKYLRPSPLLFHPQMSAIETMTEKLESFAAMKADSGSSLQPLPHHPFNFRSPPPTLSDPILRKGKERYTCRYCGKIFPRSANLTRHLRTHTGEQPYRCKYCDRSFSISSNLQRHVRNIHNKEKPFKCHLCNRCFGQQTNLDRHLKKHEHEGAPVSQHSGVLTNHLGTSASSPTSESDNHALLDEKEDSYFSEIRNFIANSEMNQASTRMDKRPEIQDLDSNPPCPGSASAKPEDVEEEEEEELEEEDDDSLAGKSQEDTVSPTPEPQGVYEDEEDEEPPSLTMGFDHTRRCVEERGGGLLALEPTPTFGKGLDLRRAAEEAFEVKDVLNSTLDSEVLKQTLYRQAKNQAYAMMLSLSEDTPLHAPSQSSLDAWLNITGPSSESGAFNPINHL

Legend:
[1] = biological target: PRDM16 (mouse (endogenous in MEFs and BAT cells)) (UniProt A2A935); assay: co-IP; endogenous PRDM16 immunoprecipitated (anti-PRDM16, protein A magnetic beads) from lysate (0.75% NP-40, 1 mM DTT) of MEFs after 2 days of brown adipogenic commitment; scramble, Dio3os-cas9 knockdown, Dio3os-cas9 + 50 nM T3; immunoblot for PGC-1a and CtBP1; IgG as negative control
[2] = biological target: PRDM16 (mouse (endogenous in MEFs and BAT cells)) (UniProt A2A935); assay: co-IP; endogenous PRDM16 immunoprecipitated from brown progenitors/preadipocytes or SVFs isolated from mouse BAT (fetal E18.5 and adult, control or maternal obesity; AAV-scramble or AAV-Dio3os injected mice); immunoblot for PGC-1a and CtBP1; IgG as negative control
[3] = biological target: PRDM16 (mouse (endogenous in MEFs and BAT cells)) (UniProt A2A935); assay: co-IP; PGC-1a/PRDM16 complex in spheroids formed from fetal BAT stromal vascular cells; Dio3os knockdown with or without T3 supplementation

binding [1] | binding [2] | binding [3] | Molecule
binds | binds | – | CtBP1 (from UniProt O88712 1-441)
binds | binds | binds | PGC-1a (protein, UniProt O70343 1-797) MAWDMCSQDSVWSDIECAALVGEDQPLCPDLPELDLSELDVNDLDTDSFLGGLKWCSDQSEIISNQYNNEPANIFEKIDEENEANLLAVLTETLDSLPVDEDGLPSFDALTDGAVTTDNEASPSSMPDGTPPPQEAEEPSLLKKLLLAPANTQLSYNECSGLSTQNHAANHTHRIRTNPAIVKTENSWSNKAKSICQQQKPQRRPCSELLKYLTTNDDPPHTKPTENRNSSRDKCASKKKSHTQPQSQHAQAKPTTLSLPLTPESPNDPKGSPFENKTIERTLSVELSGTAGLTPPTTPPHKANQDNPFKASPKLKPSCKTVVPPPTKRARYSECSGTQGSHSTKKGPEQSELYAQLSKSSGLSRGHEERKTKRPSLRLFGDHDYCQSLNSKTDILINISQELQDSRQLDFKDASCDWQGHICSSTDSGQCYLRETLEASKQVSPCSTRKQLQDQEIRAELNKHFGHPCQAVFDDKSDKTSELRDGDFSNEQFSKLPVFINSGLAMDGLFDDSEDESDKLSYPWDGTQPYSLFDVSPSCSSFNSPCRDSVSPPKSLFSQRPQRMRSRSRSFSRHRSCSRSPYSRSRSRSPGSRSSSRSCYYYESSHYRHRTHRNSPLYVRSRSRSPYSRRPRYDSYEAYEHERLKRDEYRKEHEKRESERAKQRERQKQKAIEERRVIYVGKIRPDTTRTELRDRFEVFGEIEECTVNLRDDGDSYGFITYRYTCDAFAALENGYTLRRSNETDFELYFCGRKQFFKSNYADLDTNSDDFDPASTKSKYDSLDFDSLLKEAQRSLRR
